Values from PubChem BioAssay AID1224828 (NIAID, 2016).
Test: 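Find genes required for NF-kappaB p65 moving into the nucleus after LPS in mouse macrophages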 (primary screen). System: mouse RAW264.7 G9 macrophage reporter cells (GFP-p65, Tnf promoter-mCherry). Knock-down reagent: siRNA pool against mouse genes, 100 nM. Time to read-out: 2 days siRNA transfection, then 40 min LPS before fixation. Challenge: LPS (Salmonella minnesota R595) at 10 ng/ml. Read-out: 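Microscopy ratio of nuclear to perinuclear-ring GFP-p65 signal, scaled to the plate median; gene score is the average of two replicate robust z-scores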. Scale: p65 translocation robust z-score: higher = more nuclear NF-kappaB p65 after LPS than the plate median; nuclear/cytoplasmic p65 ratio: higher = more nuclear NF-kappaB p65. Active means: 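Called active when z exceeds 3.3 or falls under -1.56 (median of Tlr4 controls), giving activity score of at least 50; no calls for control wells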. Calls: active = hit (p65 shift raised or lowered); inactive = no clear change.
Shown is a random part of about 17,000 deposited reagents. In the full data, 762 (4.5%) got an active call. 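Active calls include both raised and lowered p65 entry, mostly lowered; wells with fewer than 50 cells lack a z-score.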 The raw values are shown without normalisation. Reagents against one gene are numbered here.

gene	reagent	p65 translocation robust z-score	nuclear/cytoplasmic p65 ratio, rep 1	nuclear/cytoplasmic p65 ratio, rep 2	low cell count flag	Call
Usp3	1	0.25	1.64	1.45	enough cells to score	inactive
Or2m12	1	3	2.13	1.75	enough cells to score	inactive
Ppic	1	0.66	1.4	1.29	enough cells to score	inactive
Kremen2	1	0.55	1.51	1.48	enough cells to score	inactive
Sin3b	1	0.69	1.62	1.34	enough cells to score	inactive
Mrpl46	1	1.79	2.14	1.81	enough cells to score	inactive
H3f3b	1	0	1.42	1.39	enough cells to score	inactive
Dcaf5	1	0.9	1.52	1.36	enough cells to score	inactive
Cox11	1	1.49	1.73	1.94	enough cells to score	inactive
Snx17	1	-0.03	1.36	1.27	enough cells to score	inactive
Rnf141	1	0.73	1.51	1.31	enough cells to score	inactive
Zfp395	1	-0.53	1.5	1.37	enough cells to score	inactive
Procr	1	0.06	1.48	1.44	enough cells to score	inactive
Sectm1b	1	0.75	1.55	1.3	enough cells to score	inactive

In a second layout: entries from further up
{"gene":"Rnf141","reagent":1,"p65 translocation robust z-score":0.73,"nuclear/cytoplasmic p65 ratio, rep 1":1.51,"nuclear/cytoplasmic p65 ratio, rep 2":1.31,"low cell count flag":"enough cells to score","Call":"inactive"}
{"gene":"Zfp395","reagent":1,"p65 translocation robust z-score":-0.53,"nuclear/cytoplasmic p65 ratio, rep 1":1.5,"nuclear/cytoplasmic p65 ratio, rep 2":1.37,"low cell count flag":"enough cells to score","Call":"inactive"}
{"gene":"Procr","reagent":1,"p65 translocation robust z-score":0.06,"nuclear/cytoplasmic p65 ratio, rep 1":1.48,"nuclear/cytoplasmic p65 ratio, rep 2":1.44,"low cell count flag":"enough cells to score","Call":"inactive"}

Next results:
gene	reagent	p65 translocation robust z-score	nuclear/cytoplasmic p65 ratio, rep 1	nuclear/cytoplasmic p65 ratio, rep 2	low cell count flag	Call
A430093F15Rik	1	-1.82	1.17	1.24	enough cells to score	active
Mrps12	1	-0.99	1.56	1.5	enough cells to score	inactive
Prdx4	1	0.88	1.55	1.58	enough cells to score	inactive
Gtf3c2	1	-0.9	1.44	1.52	enough cells to score	inactive
Slc4a8	1		1.3	1.29	fewer than 50 cells per well; well left out of scoring	inactive
Acta2	1	0.06	1.49	1.51	enough cells to score	inactive
Acta2	2	-0.29	1.58	1.57	enough cells to score	inactive
Cpne1	1	0.76	1.68	1.91	enough cells to score	inactive
Eola1	1	1.53	1.72	1.66	enough cells to score	inactive
Gypa	1	0.85	1.77	1.67	enough cells to score	inactive
